This note sets out measurements from patent US20210380703A1.

Changes are numbered by the printed parent chain. Results are given in words; binding and its absence hold for the method and conditions named. Sequences can lack the tags named with a protein.

Sequences and labels used below:
T1: His-tagged Human ACVR2B (human) (UniProt Q13705)
T1 sequence (looked up): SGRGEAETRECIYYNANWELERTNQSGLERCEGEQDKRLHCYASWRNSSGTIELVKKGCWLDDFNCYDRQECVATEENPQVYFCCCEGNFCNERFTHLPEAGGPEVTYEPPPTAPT

T2: His-tagged Mouse ACVR2B (mouse) (UniProt P27040)
T2 sequence (looked up): T1 sequence (looked up) with A101P

B1: 374_C05 (antibody, V domains shown)
VH: EVQLLESGGGLVQPGGSLRLSCAASGFTFDSYSMNWVRQAPGKGLEWVAGINYNSGYKSYADSVKGRFTISRDNSKNTLYLQMNSLRAEDTAVYYCARSATWHDTHLDYWGQGTLVTVSS
VL: DIQMTQSPSSLSASVGDRVTITCRASQSIIRYLNWYQQKPGKAPKLVIYAATSRASGVPSRFSGSGSGTDFTLTISSLQPEDFATYYCQQSYDNPLTFGGGTKVEIK
B2: 375_G07 (antibody, V domains shown)
VH: B1 VH with K58T
VL: B1 VL with I30L, R31S, R54L, N94L
B3: 369_A10 (antibody, V domains shown)
VH: B1 VH with K58T, S59G
VL: B1 VL with I30L, R31S, V47L, D93E, N94L
B4: 372_D04 (antibody, V domains shown)
VH: B1 VH with D30S, G50N, K58T, S59G
VL: B1 VL with I30L, R31T, V47L, R54L, A55H, N94L
B5: 373_B08 (antibody, V domains shown)
VH: B1 VH with G50N, S59G
VL: B1 VL with I30L, R31T, R54L, D93E
B6: 367_G07 (antibody, V domains shown)
VH: B1 VH with G50N, S55G, K58T, S59G
VL: B1 VL with I30L, R31T, L33V, V47L
B7: 373_B11 (antibody, V domains shown)
VH: B1 VH with D30S, G50N, S59G
VL: B1 VL with I30L, R31S, V47L
B8: 370_E07 (antibody, V domains shown)
VH: B1 VH with G50N, S55G, K58T, S59G
VL: B1 VL with I30L, R31T, V47L

In the first test the target is T1, His-tagged Human ACVR2B (human). The test is described as follows: ELISA, coated His-tagged human ACVR2B, 10-point. On the technique in general: In an ELISA, binding on a coated surface is turned into a signal by an enzyme label.
On to B1, for which the binding result is reported as “no binding (tested: 1 µM (top of the dilution series))”.

Regarding B2, the binding entry is given as “no binding (tested: 1 µM (top of the dilution series))”.

B3: the binding result is given as “no binding (tested: 1 µM (top of the dilution series))”.

Take B4: the binding result is “no binding (tested: 1 µM (top of the dilution series))”.

With B5, the binding result is reported as “no binding (tested: 1 µM (top of the dilution series))”.

As for B6, the binding entry is “no binding (tested: 1 µM (top of the dilution series))”.

Take B7: the binding result is reported as “no binding (tested: 1 µM (top of the dilution series))”.

With B8, the binding result is given as “no binding (tested: 1 µM (top of the dilution series))”.

Another test deals with T2, His-tagged Mouse ACVR2B (mouse). The test is described as follows: ELISA, coated His-tagged mouse ACVR2B, 10-point.
Take B1: the binding entry is given as “no binding (tested: 1 µM (top of the dilution series))”.

As for B2, the binding result is on record as “no binding (tested: 1 µM (top of the dilution series))”.

In the case of B3, the binding result is reported as “no binding (tested: 1 µM (top of the dilution series))”.

With B4, the binding result was “no binding (tested: 1 µM (top of the dilution series))”.

Regarding B5, the binding entry was “no binding (tested: 1 µM (top of the dilution series))”.

Turning to B6, the binding entry is recorded as “no binding (tested: 1 µM (top of the dilution series))”.

B7: the binding entry is on record as “no binding (tested: 1 µM (top of the dilution series))”.

Regarding B8, the binding result was “no binding (tested: 1 µM (top of the dilution series))”.
